Data as given in patent US9250249B2, “Autophagy and phospholipidosis pathway assays” (Enzo Biochem, Inc., priority 2008, dated 2016).
At least one compound was matched to its structure with a doubt left.

Test system: U2OS human osteosarcoma cells
Experiment: Fluorescence microscopy-based lysosomal perturbation assay (Dye 1 staining)
Type: cell-based
Details: U2OS cells pre-treated with drug (chloroquine 8-64 μM, 18 hours), Dye 1 15 min
Procedure: U2OS human osteosarcoma cells were maintained in McCoy's 5a modified medium supplemented with 10% FBS and 100 units/ml penicillin/streptomycin (Invitrogen, Carlsbad, Calif.) in a humidified 37° C., 5% CO2 environment. Cells were allowed to proliferate on glass slides or were seeded into 96-well plates at a density of 2×10^4 cells/well and allowed to attach overnight. The cells were plated such that at the end of the experiment, they reached about 90% confluency.
The fluorescence-based lysosomal perturbation assay was established by first incubating cells cultivated on glass slides for 4-24 hours with chloroquine (8-64 μM final concentration), a well known phospholipidosis-inducing agent. Control cells were incubated with 0.1% (v/v) dimethyl sulfoxide (DMSO), which served as the vehicle control. Cells were then briefly (15 min) incubated with a combination of Dye 1 and Hoechst 33342 dye. Following incubation, cells grown on glass microscope slides were covered with glass coverslips, sealed with nail polish and observed using an inverted Axiovert 200M microscope (Carl Zeiss, Inc., Oberkochen, Germany). Images were acquired with a 63× objective lens (Zeiss).
Cells were subsequently stained with Dye 1 for 15 minutes. Nuclei were counter-stained with Hoechst 33342 dye. […]

O=c1[nH]c2ccccc2n1C1CCN(CCCC(c2ccc(F)cc2)c2ccc(F)cc2)CC1 [pimozide]
punctate pattern of cytoplasmic staining / levels of Dye 1 in the cells: increased in a dose-dependent manner
